In US20210145768A1, “MODULATING IMMUNE RESPONSE VIA TARGETING OF OLFACTORY RECEPTOR ACTIVITY” (La Jolla Institute for Allergy and Immunology, priority 2018, published 2021):

Assay: Plasma octanal quantification by stable isotope dilution LC/MS/MS, mouse

CCCCCCCC=O [octanal]
octanal in plasma (Apoe−/− mice receiving CD and WD, endogenous): elevated
octanal level in plasma, average (C57BL/6J mice fed WD, endogenous): 3.5 µM
octanal concentration, fold less than wild-type mice (mice lacking gut microbiota (germ free) vs wild-type): 3 fold
